# Test results taken from the supplement of paper PMC8728848.
# The other results are listed elsewhere or left out.
# What was measured:
# Test in all cases: glycan array binding signal (z-score within array); higher = stronger binding
# Conditions in all cases: glycan notation: IUPAC condensed, linker removed
# Gal(b1-2)Gal = target: Gal(b1-2)Gal
# Procedure, shortened: (§1)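 Arrays were curated from the Consortium for Functional Glycomics database, 3228 in total, and kept only where the protein sequence was available. Binding is expressed as a within-array Z-score. This score was averaged across arrays of the same protein sequence at different concentrations or buffers and across linkers, and negative values can be read as non-binding.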
# Gal(b1-3)Gal = target: Gal(b1-3)Gal
# Procedure, shortened: as §1
# Gal(b1-3)Gal(b1-4)GlcNAc = target: Gal(b1-3)Gal(b1-4)GlcNAc
# Procedure, shortened: as §1
# Gal(b1-3)GalNAc = target: Gal(b1-3)GalNAc
# Procedure, shortened: as §1
# [1] = target: Gal(b1-3)GalNAc(a1-3)[Fuc(a1-2)]Gal(b1-4)Glc
# Procedure, shortened: as §1
# [2] = target: Gal(b1-3)GalNAc(a1-3)[Fuc(a1-2)]Gal(b1-4)GlcNAc
# Procedure, shortened: as §1
# Gal(b1-3)GalNAc(b1-3)Gal = target: Gal(b1-3)GalNAc(b1-3)Gal
# Procedure, shortened: as §1
# [3] = target: Gal(b1-3)GalNAc(b1-3)Gal(a1-4)Gal(b1-4)Glc
# Procedure, shortened: as §1
# [4] = target: Gal(b1-3)GalNAc(b1-4)Gal(b1-4)Glc
# Procedure, shortened: as §1
# [5] = target: Gal(b1-3)GalNAc(b1-4)[Neu5Ac(a2-3)]Gal(b1-4)Glc
# Procedure, shortened: as §1
# Gal(b1-3)GlcNAc = target: Gal(b1-3)GlcNAc
# Procedure, shortened: as §1
# [6] = target: Gal(b1-3)GlcNAc(a1-3)Gal(b1-4)GlcNAc
# Procedure, shortened: as §1
# [7] = target: Gal(b1-3)GlcNAc(a1-6)Gal(b1-4)GlcNAc
# Procedure, shortened: as §1
# Gal(b1-3)GlcNAc(b1-2)Man = target: Gal(b1-3)GlcNAc(b1-2)Man
# Procedure, shortened: as §1
# [8] = target: Gal(b1-3)GlcNAc(b1-2)Man(a1-3)[Gal(b1-3)GlcNAc(b1-2)Man(a1-6)]Man(b1-4)GlcNAc(b1-4)GlcNAc
# Procedure, shortened: as §1
# [9] = target: Gal(b1-3)GlcNAc(b1-2)Man(a1-3)[Gal(b1-3)GlcNAc(b1-2)Man(a1-6)]Man(b1-4)GlcNAc(b1-4)[Fuc(a1-6)]GlcNAc
# Procedure, shortened: as §1
# [10] = target: Gal(b1-3)GlcNAc(b1-2)Man(a1-3)[GlcNAc(b1-4)][Gal(b1-3)GlcNAc(b1-2)Man(a1-6)]Man(b1-4)GlcNAc(b1-4)GlcNAc
# Procedure, shortened: as §1
# [11] = target: Gal(b1-3)GlcNAc(b1-2)[Gal(b1-3)GlcNAc(b1-6)]Man(a1-6)[Gal(b1-3)GlcNAc(b1-2)Man(a1-3)]Man(b1-4)GlcNAc(b1-4)GlcNAc
# Procedure, shortened: as §1
# [12] = target: Gal(b1-3)GlcNAc(b1-3)Gal(b1-3)GlcNAc
# Procedure, shortened: as §1
# [13] = target: Gal(b1-3)GlcNAc(b1-3)Gal(b1-4)Glc
# Procedure, shortened: as §1
# [14] = target: Gal(b1-3)GlcNAc(b1-3)Gal(b1-4)GlcNAc
# Procedure, shortened: as §1
# [15] = target: Gal(b1-3)GlcNAc(b1-3)Gal(b1-4)GlcNAc(b1-2)Man(a1-3)[Gal(b1-3)GlcNAc(b1-3)Gal(b1-4)GlcNAc(b1-2)Man(a1-6)]Man(b1-4)GlcNAc(b1-4)GlcNAc
# Procedure, shortened: as §1
# [16] = target: Gal(b1-3)GlcNAc(b1-3)Gal(b1-4)GlcNAc(b1-2)[Gal(b1-3)GlcNAc(b1-3)Gal(b1-4)GlcNAc(b1-6)]Man(a1-6)[Gal(b1-3)GlcNAc(b1-3)Gal(b1-4)GlcNAc(b1-2)Man(a1-3)]Man(b1-4)GlcNAc(b1-4)[Fuc(a1-6)]GlcNAc
# Procedure, shortened: as §1
# [17] = target: Gal(b1-3)GlcNAc(b1-3)Gal(b1-4)GlcNAc(b1-3)Gal(b1-4)GlcNAc(b1-2)[Gal(b1-3)GlcNAc(b1-3)Gal(b1-4)GlcNAc(b1-3)Gal(b1-4)GlcNAc(b1-6)]Man(a1-6)[Gal(b1-3)GlcNAc(b1-3)Gal(b1-4)GlcNAc(b1-3)Gal(b1-4)GlcNAc(b1-2)Man(a1-3)]Man(b1-4)GlcNAc(b1-4)[Fuc(a1-6)]GlcNAc
# Procedure, shortened: as §1
# [18] = target: Gal(b1-3)GlcNAc(b1-3)Gal(b1-4)GlcNAc(b1-6)[Gal(b1-3)GlcNAc(b1-3)]Gal(b1-4)Glc
# Procedure, shortened: as §1
# [19] = target: Gal(b1-3)GlcNAc(b1-3)Gal(b1-4)[Fuc(a1-3)]GlcNAc
# Procedure, shortened: as §1
# [20] = target: Gal(b1-3)GlcNAc(b1-3)Gal(b1-4)[Fuc(a1-3)]GlcNAc(b1-6)[Gal(b1-3)GlcNAc(b1-3)]Gal(b1-4)Glc
# Procedure, shortened: as §1
# [21] = target: Gal(b1-3)GlcNAc(b1-3)GalNAc
# Procedure, shortened: as §1
# [22] = target: Gal(b1-3)GlcNAc(b1-6)Gal(b1-4)GlcNAc
# Procedure, shortened: as §1
# [23] = target: Gal(b1-3)GlcNAc(b1-6)GalNAc
# Procedure, shortened: as §1
# [24] = target: Gal(b1-3)GlcNAc(b1-6)[Gal(b1-3)]GalNAc
# Procedure, shortened: as §1
# Gal(b1-3)GlcNAc6S = target: Gal(b1-3)GlcNAc6S
# Procedure, shortened: as §1
# [25] = target: Gal(b1-3)[Fuc(a1-4)]GlcNAc
# Procedure, shortened: as §1
# [26] = target: Gal(b1-3)[Fuc(a1-4)]GlcNAc(b1-2)Man
# Procedure, shortened: as §1
# [27] = target: Gal(b1-3)[Fuc(a1-4)]GlcNAc(b1-2)Man(a1-3)[Gal(b1-3)[Fuc(a1-4)]GlcNAc(b1-2)Man(a1-6)]Man(b1-4)GlcNAc(b1-4)[Fuc(a1-6)]GlcNAc
# Procedure, shortened: as §1
# [28] = target: Gal(b1-3)[Fuc(a1-4)]GlcNAc(b1-3)Gal(b1-3)[Fuc(a1-4)]GlcNAc
# Procedure, shortened: as §1
# [29] = target: Gal(b1-3)[Fuc(a1-4)]GlcNAc(b1-3)Gal(b1-4)[Fuc(a1-3)]GlcNAc
# Procedure, shortened: as §1
binder,measurement,setting,value
SynCAM (Mus musculus) (protein) MASAVLPSGSQCAAAAAVAAAAAPPGLRLRLLLLLLSAAALIPTGDGQNLFTKDVTVIEGEVATISCQVNKSDDSVIQLLNPNRQTIYFRDFRPLKDSRFQLLNFSSSELKVSLTNVSISDEGRYFCQLYTDPPQESYTTITVLVPPRNLMIDIQKDTAVEGEEIEVNCTAMASKPATTIRWFKGNKELKGKSEVEEWSDMYTVTSQLMLKVHKEDDGVPVICQVEHPAVTGNLQTQRYLEVQYKPQVHIQMTYPLQGLTREGDAFELTCEAIGKPQPVMVTWVRVDDEMPQHAVLSGPNLFINNLNKTDNGTYRCEASNIVGKAHSDYMLYVYDPPTTIPPP,glycan array binding signal (z-score),Gal(b1-2)Gal,0.521
same,glycan array binding signal (z-score),Gal(b1-3)Gal,-0.772
same,glycan array binding signal (z-score),Gal(b1-3)Gal(b1-4)GlcNAc,-0.768
same,glycan array binding signal (z-score),Gal(b1-3)GalNAc,-0.166
same,glycan array binding signal (z-score),[1],-0.088
same,glycan array binding signal (z-score),[2],1.09
same,glycan array binding signal (z-score),Gal(b1-3)GalNAc(b1-3)Gal,0.652
same,glycan array binding signal (z-score),[3],-0.615
same,glycan array binding signal (z-score),[4],0.216
same,glycan array binding signal (z-score),[5],-0.643
same,glycan array binding signal (z-score),Gal(b1-3)GlcNAc,0.224
same,glycan array binding signal (z-score),[6],-0.387
same,glycan array binding signal (z-score),[7],0.338
same,glycan array binding signal (z-score),Gal(b1-3)GlcNAc(b1-2)Man,0.251
same,glycan array binding signal (z-score),[8],-0.222
same,glycan array binding signal (z-score),[9],-0.265
same,glycan array binding signal (z-score),[10],-0.502
same,glycan array binding signal (z-score),[11],-0.302
same,glycan array binding signal (z-score),[12],-0.609
same,glycan array binding signal (z-score),[13],0.308
same,glycan array binding signal (z-score),[14],-0.523
same,glycan array binding signal (z-score),[15],-0.019
same,glycan array binding signal (z-score),[16],2.36
same,glycan array binding signal (z-score),[17],2.43
same,glycan array binding signal (z-score),[18],-0.891
same,glycan array binding signal (z-score),[19],-1.13
same,glycan array binding signal (z-score),[20],-0.721
same,glycan array binding signal (z-score),[21],0.053
same,glycan array binding signal (z-score),[22],-0.679
same,glycan array binding signal (z-score),[23],-0.585
same,glycan array binding signal (z-score),[24],-0.035
same,glycan array binding signal (z-score),Gal(b1-3)GlcNAc6S,0.309
same,glycan array binding signal (z-score),[25],-0.638
same,glycan array binding signal (z-score),[26],0.627
same,glycan array binding signal (z-score),[27],-0.347
same,glycan array binding signal (z-score),[28],-1.15
same,glycan array binding signal (z-score),[29],-0.481

# Random excerpt: 3 entries already listed
binder,measurement,setting,value
SynCAM (Mus musculus) (protein) MASAVLPSGSQCAAAAAVAAAAAPPGLRLRLLLLLLSAAALIPTGDGQNLFTKDVTVIEGEVATISCQVNKSDDSVIQLLNPNRQTIYFRDFRPLKDSRFQLLNFSSSELKVSLTNVSISDEGRYFCQLYTDPPQESYTTITVLVPPRNLMIDIQKDTAVEGEEIEVNCTAMASKPATTIRWFKGNKELKGKSEVEEWSDMYTVTSQLMLKVHKEDDGVPVICQVEHPAVTGNLQTQRYLEVQYKPQVHIQMTYPLQGLTREGDAFELTCEAIGKPQPVMVTWVRVDDEMPQHAVLSGPNLFINNLNKTDNGTYRCEASNIVGKAHSDYMLYVYDPPTTIPPP,glycan array binding signal (z-score),[8],-0.222
same,glycan array binding signal (z-score),Gal(b1-3)GlcNAc(b1-2)Man,0.251
same,glycan array binding signal (z-score),[6],-0.387
